Some of these results come from one statement about several compounds together.
Experiments:
KRas G12D [1] = molecular target: T1, KRas G12D (Homo sapiens, UniProt P01116, G12D); assay: Cellular Phospho-ERK AlphaLISA, HPAC cells (KRAS G12D); assay type: cell-based; conditions: 2 h, read-out: relative IC50, reduction of phosphorylated ERK-1/2 in cells expressing KRAS G12D
T1 construct: host or cells: PANC-1

By UniProt entry, the sequences of proteins in these tests, tags left out. Residues count along the entry.
UniProt P01116, 1-188 isoform P01116-2 G12D: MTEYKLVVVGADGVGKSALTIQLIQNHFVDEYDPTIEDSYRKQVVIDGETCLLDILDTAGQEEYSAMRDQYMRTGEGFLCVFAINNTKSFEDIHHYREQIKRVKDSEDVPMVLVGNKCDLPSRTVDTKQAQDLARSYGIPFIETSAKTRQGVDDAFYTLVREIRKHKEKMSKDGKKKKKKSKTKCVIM
UniProt P01116, 1-188 isoform P01116-2 G12C: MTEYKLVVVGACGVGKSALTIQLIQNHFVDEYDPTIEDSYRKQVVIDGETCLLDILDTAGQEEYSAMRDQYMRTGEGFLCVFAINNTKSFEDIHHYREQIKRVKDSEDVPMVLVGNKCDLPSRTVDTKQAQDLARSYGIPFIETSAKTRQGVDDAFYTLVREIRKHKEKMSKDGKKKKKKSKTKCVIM
UniProt P01116, 1-188 isoform P01116-2 G12V: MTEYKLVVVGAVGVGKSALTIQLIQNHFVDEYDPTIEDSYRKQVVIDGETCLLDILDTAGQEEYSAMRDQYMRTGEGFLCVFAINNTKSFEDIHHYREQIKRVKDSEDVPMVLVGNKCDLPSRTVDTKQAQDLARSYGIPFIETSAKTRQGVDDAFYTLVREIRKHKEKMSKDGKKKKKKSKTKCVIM
UniProt P01116, 1-188 isoform P01116-2: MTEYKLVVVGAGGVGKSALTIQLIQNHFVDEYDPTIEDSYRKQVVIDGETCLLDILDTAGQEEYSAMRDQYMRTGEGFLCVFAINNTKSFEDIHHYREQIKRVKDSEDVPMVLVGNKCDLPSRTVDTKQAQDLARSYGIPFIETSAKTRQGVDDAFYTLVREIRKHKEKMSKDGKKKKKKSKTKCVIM

KRAS G12C = molecular target: T2, KRAS G12C (Homo sapiens, UniProt P01116, G12C); assay: Cellular Phospho-ERK AlphaLISA, NCI-1373 cells (KRAS G12C); assay type: cell-based; conditions: 2 h, read-out: relative IC50, reduction of phosphorylated ERK-1/2 in cells expressing KRAS G12C
T2 construct: endogenous in cells; host or cells: NCI-1373

KRAS G12V = molecular target: T3, KRAS G12V (Homo sapiens, UniProt P01116, G12V); assay: Cellular Phospho-ERK AlphaLISA, SW620 cells (KRAS G12V); assay type: cell-based; conditions: 2 h, read-out: relative IC50, reduction of phosphorylated ERK-1/2 in cells expressing KRAS G12V
T3 construct: endogenous in cells; host or cells: SW620

KRAS WT = molecular target: T4, KRAS WT (Homo sapiens, UniProt P01116); assay: Cellular Phospho-ERK AlphaLISA, MKN45 cells (WT KRAS amplification); assay type: cell-based; conditions: cells expressing KRAS WT, 2 h; read-out: relative IC50, reduction of phosphorylated ERK-1/2 in cells expressing KRAS WT
T4 construct: or amplification of the KRAS gene; endogenous in cells; host or cells: MKN45

KRas G12D [2] = molecular target: T1, KRas G12D; assay: PANC-1 Cellular Active RAS GTPase ELISA (KRas G12D Mutation); assay type: cell-based; conditions: PANC-1 cells, 2 hours; read-out: relative IC50, inhibition of constitutive RAS GTPase activity (KRas G12D mutant)
NRAS = NRAS (Homo sapiens, UniProt P01111); assay: Cellular Phospho-ERK AlphaLISA, MEF-NRAS cells (RAS-less MEFs expressing NRAS only); assay type: cell-based, mouse; conditions: 2 h, read-out: relative IC50, phospho-ERK, MEF-NRAS
HRAS = HRAS (Homo sapiens, UniProt P01112); assay: Cellular Phospho-ERK AlphaLISA, MEF-HRAS cells (RAS-less MEFs expressing HRAS only); assay type: cell-based, mouse; conditions: 2 h, read-out: relative IC50, phospho-ERK, MEF-HRAS

Compound	IC50 (KRas G12D [1]) [nM]	IC50 (KRAS G12C) [nM]	IC50 (KRAS G12V) [nM]	IC50 (KRAS WT) [nM]	IC50 (KRas G12D [2]) [nM]	IC50 (NRAS) [nM]	IC50 (HRAS) [nM]
N#Cc1c(N)sc2c(F)cnc(-c3c4c(c5cnc(OC[C@@H]6CCCO6)nc5c3F)COC4)c12 [Example 304, 2-Amino-7-fluoro-4-[5-fluoro-3-[[(2S)-tetrahydrofuran-2-yl]methoxy]-7,9-dihydrofuro[3,4-f]quinazolin-6-yl]thieno[3,2-c]pyridine-3-carbonitrile]	< 500	< 500	< 500	< 500	–	–	–
CN1CCC[C@H]1COc1ccc2c3c(c(-c4ccc(F)c5sc(N)c(C#N)c45)c(Cl)c2n1)COC3 (single isomer, unassigned; isomer 1) [Example 44]	< 500	< 500	< 500	< 500	< 100	–	–
C[C@@H](O)COc1ccc2c3c(c(-c4ccc(F)c5sc(N)c(C#N)c45)c(Cl)c2n1)COC3 [Example 37, 2-Amino-4-[5-chloro-7-[(2R)-2-hydroxypropoxy]-1,3-dihydrofuro[3,4-f]quinolin-4-yl]-7-fluoro-benzothiophene-3-carbonitrile]	< 500	< 500	< 500	< 500	< 100	–	–
N#Cc1c(N)sc2c(F)cnc(-c3c4c(c5cnc(OC[C@H]6CCOC6)nc5c3F)COC4)c12 [Example 313, 2-Amino-7-fluoro-4-[5-fluoro-3-[[(3S)-tetrahydrofuran-3-yl]methoxy]-7,9-dihydrofuro[3,4-f]quinazolin-6-yl]thieno[3,2-c]pyridine-3-carbonitrile]	< 500	< 500	< 500	< 500	–	–	–
N#Cc1c(N)sc2c(F)cnc(-c3c4c(c5cnc(OC[C@@H]6CCOC6)nc5c3F)COC4)c12 [Example 312, 2-Amino-7-fluoro-4-[5-fluoro-3-[[(3R)-tetrahydrofuran-3-yl]methoxy]-7,9-dihydrofuro[3,4-f]quinazolin-6-yl]thieno[3,2-c]pyridine-3-carbonitrile]	< 500	< 500	< 500	< 500	–	–	–
N#Cc1c(N)sc2c(F)ccc(-c3c4c(c5ccc(OC[C@H]6C[C@H](O)C6)nc5c3Cl)COC4)c12 (single isomer, unassigned; isomer 1) [Example 35, 2-Amino-4-[5-chloro-7-[(3-hydroxycyclobutyl)methoxy]-1,3-dihydrofuro[3,4-f]quinolin-4-yl]-7-fluoro-benzothiophene-3-carbonitrile, Isomer 1]	< 500	< 500	< 500	< 500	< 100	–	–
Cc1c(-c2ccc(F)c3sc(N)c(C#N)c23)c2c(c3cnc(OC[C@@H]4CCCN4C)nc13)CCOC2 (single isomer, unassigned; isomer 1) [Example 29]	< 500	< 500	< 500	< 500	< 100	–	–
CN1CCO[C@@H](COc2ccc3c4c(c(-c5ccc(F)c6sc(N)c(C#N)c56)c(Cl)c3n2)COC4)C1 (single isomer, unassigned; isomer 2) [Example 32]	–	< 500	< 500	< 500	< 100	–	–
N#Cc1c(N)sc2c(F)ccc(-c3c4c(c5ccc(OC[C@@H]6CCCN6)nc5c3Cl)COC4)c12 (single isomer, unassigned; isomer 1) [Example 43]	< 500	< 500	< 500	< 500	< 100	–	–
CN1CC(F)(F)CC[C@H]1COc1ncc2c3c(c(-c4ncc(F)c5sc(N)c(C#N)c45)c(F)c2n1)COC3 [Example 292, 2-Amino-4-[3-[[(2S)-5,5-difluoro-1-methyl-2-piperidyl]methoxy]-5-fluoro-7,9-dihydrofuro[3,4-f]quinazolin-6-yl]-7-fluoro-thieno[3,2-c]pyridine-3-carbonitrile]	< 500	< 500	< 500	< 500	–	–	–
N#Cc1c(N)sc2c(F)cnc(-c3c4c(c5c(OCC(F)(F)F)nc(OC[C@@]67CCCN6C[C@H](F)C7)nc5c3F)COC4)c12 [Example 314, 2-Amino-7-fluoro-4-[5-fluoro-3-[[(2R,8S)-2-fluoro-1,2,3,5,6,7-hexahydropyrrolizin-8-yl]methoxy]-1-(2,2,2-trifluoroethoxy)-7,9-dihydrofuro[3,4-f]quinazolin-6-yl]thieno[3,2-c]pyridine-3-carbonitrile]	–	< 500	< 500	< 500	–	> 2000	> 2000
N#Cc1c(N)sc2c(F)cnc(-c3c4c(c5c(N6CCOCC6)nc(OC[C@@]67CCCN6C[C@H](F)C7)nc5c3F)COC4)c12 [Example 320, 2-Amino-7-fluoro-4-[5-fluoro-3-[[(2R,8S)-2-fluoro-1,2,3,5,6,7-hexahydropyrrolizin-8-yl]methoxy]-1-morpholino-7,9-dihydrofuro[3,4-f]quinazolin-6-yl]thieno[3,2-c]pyridine-3-carbonitrile]	–	< 500	< 500	< 500	–	> 2000	> 2000
N#Cc1c(N)sc2c(F)cnc(-c3c4c(c5c(NCCO)nc(OC[C@@]67CCCN6C[C@H](F)C7)nc5c3F)COC4)c12 [Example 317, 2-Amino-7-fluoro-4-[5-fluoro-3-[[(2R,8S)-2-fluoro-1,2,3,5,6,7-hexahydropyrrolizin-8-yl]methoxy]-1-(2-hydroxyethylamino)-7,9-dihydrofuro[3,4-f]quinazolin-6-yl]thieno[3,2-c]pyridine-3-carbonitrile]	–	< 500	< 500	< 500	–	> 2000	> 2000
N#Cc1c(N)sc2c(F)ccc(-c3c4c(c5ccc(OCC67CCCN6CCC7)nc5c3Cl)COC4)c12 (single isomer, unassigned; isomer 1) [Example 39, 2-Amino-4-[5-chloro-7-(1,2,3,5,6,7-hexahydropyrrolizin-8-ylmethoxy)-1,3-dihydrofuro[3,4-f]quinolin-4-yl]-7-fluoro-benzothiophene-3-carbonitrile, Isomer 1]	–	–	< 500	< 500	< 100	–	–
CN1C[C@H]2C[C@H]2[C@H]1COc1ncc2c3c(c(-c4ncc(F)c5sc(N)c(C#N)c45)c(F)c2n1)COC3 [Example 294, 2-Amino-7-fluoro-4-[5-fluoro-3-[[(1R,2S,5S)-3-methyl-3-azabicyclo[3.1.0]hexan-2-yl]methoxy]-7,9-dihydrofuro[3,4-f]quinazolin-6-yl]thieno[3,2-c]pyridine-3-carbonitrile]	< 500	< 500	< 500	< 500	–	–	–
CN1CCCC1(CO)COc1ccc2c3c(c(-c4ccc(F)c5sc(N)c(C#N)c45)c(Cl)c2n1)COC3 (single isomer, unassigned; isomer 1) [Example 40, 2-Amino-4-[5-chloro-7-[[2-(hydroxymethyl)-1-methyl-pyrrolidin-2-yl]methoxy]-1,3-dihydrofuro[3,4-f]quinolin-4-yl]-7-fluoro-benzothiophene-3-carbonitrile, Isomer 1]	–	< 500	< 500	< 500	< 100	–	–
N#Cc1c(N)sc2c(F)cnc(-c3c4c(c5cnc(OC[C@@]67CCCN6C[C@H](F)C7)nc5c3F)COC4)c12 [Example 211, 2-Amino-7-fluoro-4-[5-fluoro-3-[[(2R,8S)-2-fluoro-1,2,3,5,6,7-hexahydropyrrolizin-8-yl]methoxy]-7,9-dihydrofuro[3,4-f]quinazolin-6-yl]thieno[3,2-c]pyridine-3-carbonitrile]	–	< 500	< 500	< 500	< 100	> 2000	> 2000
CN(C)C1(CNc2nc(OC[C@@]34CCCN3C[C@H](F)C4)nc3c(F)c(-c4c(F)ccc5sc(N)c(C#N)c45)c4c(c23)COC4)CCCC1 [Example 93, 2-Amino-4-[1-[[1-(dimethylamino)cyclopentyl]methylamino]-5-fluoro-3-[[(2R,8S)-2-fluoro-1,2,3,5,6,7-hexahydropyrrolizin-8-yl]methoxy]-7,9-dihydrofuro[3,4-f]quinazolin-6-yl]-5-fluoro-benzothiophene-3-carbonitrile]	< 500	< 500	< 500	< 500	< 100	–	–
N#Cc1c(N)sc2c(F)ccc(-c3c4c(c5ccc(OCCO)nc5c3Cl)COC4)c12 [Example 42, 2-Amino-4-[5-chloro-7-(2-hydroxyethoxy)-1,3-dihydrofuro[3,4-f]quinolin-4-yl]-7-fluoro-benzothiophene-3-carbonitrile]	< 500	< 500	< 500	< 500	< 100	–	–
N#Cc1c(N)sc2c(F)cnc(-c3c4c(c5cnc(OC[C@H]6CCCO6)nc5c3F)COC4)c12 [Example 303, 2-Amino-7-fluoro-4-[5-fluoro-3-[[(2R)-tetrahydrofuran-2-yl]methoxy]-7,9-dihydrofuro[3,4-f]quinazolin-6-yl]thieno[3,2-c]pyridine-3-carbonitrile]	< 500	< 500	< 500	< 500	–	–	–
